Here are results for 57 molecules from PubChem BioAssay AID2685 (National Center for Advancing Translational Sciences (NCATS), 2010).

A short description of the experiment: qHTS Assay for Lipid Storage Modulators in Drosophila S3 Cells.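 As to cell number change: cells counted by Cell Tracker Red CMTPX staining in the red channel.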 The note with it: BODIPY lipid droplet fluorescence, 18-24 h; for cell number change: measured here: cell count max response, cells fed with added oleic acid. The method in brief:
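Drosophila S3 cells loaded with oleic acid (400 uM, as added) and compounds at several concentrations; lipid droplets imaged by 488-nm laser-scanning cytometry, 500–530 nm intensity and object ratio to cell channel. Percent activity normalized to 20 uM Triacsin C.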

The mark [1] stands for this setting: measured here: lipid fluorescence (Fed channel) AC50, cells fed with added oleic acid.
[2] abbreviates: measured here: cell number channel AC50, cells fed with added oleic acid.

For orientation: AC50 means the concentration at which the activity in the assay is half-maximal. A high value points to activity only at high concentration.

The other results are listed elsewhere or left out. Shown are side measurements of this screen, not its main read-out; they come without a call. The list favours compounds with an active or inconclusive main result. The note in brackets gives the kind of curve behind each potency; many fits are weak.

With `Cc1nc2cc(NS(=O)(=O)c3ccccc3)ccc2n1C`, the cell number change was 30%.

As for `Cc1[nH]c2ccccc2c1C(C[N+](=O)[O-])c1cccc(O)c1` (centres undefined), the cell number change was -21.2%. Also, the AC50 under setting [1] was 29.1 µM [falling, single point].

`COc1ccc(CN2CCC(CNS(=O)(=O)c3cccc(C(F)(F)F)c3)CC2)cc1`: the cell number change came out at 24.2%.

With `Cc1ccc(S(=O)(=O)N2CCN=C2SCc2ccc(Cl)c(Cl)c2)cc1`, the cell number change stood at 15.1%. In addition, the AC50 under setting [1] was 5.17 µM [rising, full curve, poor fit].

As for `COc1ccc(S(=O)(=O)N2CCCN(CCC(=O)Nc3cccc(C(F)(F)F)c3)CC2)cc1`, the cell number change was found to be 3.74%.

Turning to `Fc1ccc(F)c(C2=NNC(=NCC3CCCO3)SC2)c1` (centres undefined), the AC50 under setting [2] is 0.0058 µM [rising, full curve].

For `Cc1ccc(C(=O)OCC(=O)NCCN2C(=O)CSC2=O)cc1`, the cell number change turned out to be 75.6%. The half-maximal activity concentration (AC50) under setting [2] is 29.1 µM [rising, single point]. In addition, the AC50 under setting [1] was 23.1 µM [rising, single point].

`Cc1ccc(N(Cc2ccccc2)C(=O)c2ccc(S(=O)(=O)N3CCOCC3)cc2)cc1`: the cell number change worked out at 128%. Besides, under setting [2], the half-maximal activity concentration (AC50) is 5.8 µM [rising, full curve].

As for `CC(C)(C)c1cc(NC(=O)COC(=O)c2ccc3c(=O)n4c(nc3c2)CCC4)n(-c2ccccc2)n1`, the cell number change is 2.23%. In addition, the AC50 under setting [1] is 1.84 µM [falling, partial curve].

`Cc1c(OC(C)C(=O)NC(Cc2c[nH]c3ccc(O)cc23)C(=O)O)ccc2c1oc(=O)c1ccccc12` (centres undefined): the cell number change turned out to be 4.21%. Under setting [1], the half-maximal activity concentration (AC50) is 6.51 µM [falling, single point].

With `CCn1c(SCC(=O)Nc2c(C)n(C)n(-c3ccccc3)c2=O)nc2c1c(=O)n(C)c(=O)n2C`, the cell number change was 30.3%. Also, the half-maximal activity concentration (AC50) under setting [2] is 16.4 µM [rising, partial curve, poor fit].

As for `Cc1cc(C)nc(/N=C(/NC(=O)c2ccccc2)Nc2ccccc2)n1`, the cell number change is 46.8%. Moreover, under setting [2], the AC50 is 0.206 µM [rising, full curve]. Further, the AC50 under setting [1] is 0.731 µM [rising, full curve].

`CCC1(C)Cc2c(C#N)c(N)n(-c3ccccc3)c(=O)c2CO1` (centres undefined): the cell number change is -175%. Moreover, under setting [2], the AC50 is 23.1 µM [falling, partial curve]. Also, the concentration at half-maximal activity (AC50) under setting [1] is 29.1 µM [falling, single point].

As for `CCOC(=O)N1CCN(C(=O)C2CCCN(S(=O)(=O)c3ccccc3)C2)CC1` (centres undefined), the cell number change was found to be 38%. Moreover, under setting [2], the AC50 was 25.9 µM [rising, single point].

`Cc1cccc2sc(N3CCN(C(=O)C4COc5ccccc5O4)CC3)nc12` (centres undefined): the cell number change was -41.9%. Also, under setting [2], the AC50 was 29.1 µM [falling, single point].

Consider `Cc1ccnc(NC(=O)C(C)n2cc([N+](=O)[O-])cn2)c1` (centres undefined), for which the cell number change was determined as 9.05%.

Take `COC(=O)c1ccc(OC)c(CSc2nnc(-c3ccc(C(C)(C)C)cc3)o2)c1`: the cell number change was 69.4%. Further, under setting [2], the AC50 was 18.4 µM [rising, partial curve]. Moreover, the AC50 under setting [1] was 23.1 µM [falling, single point].

For the molecule `Cc1ccc(C(=O)NNC(=O)Cc2ccccc2)cc1`, the cell number change was 40.5%. The AC50 under setting [2] is 18.4 µM [rising, partial curve]. Also, the AC50 under setting [1] was 23.1 µM [rising, partial curve].

`COc1ccc2c(CC(=O)N[C@@H](Cc3c[nH]c4ccccc34)C(=O)O)cc(=O)oc2c1`: the cell number change came to 21.6%.

Turning to `COc1cccc(-c2nc(-c3ccc(NC(=O)Cc4ccccc4OC)cc3)no2)c1`, the AC50 is 2.31 µM [rising, partial curve] under setting [2] and 1.84 µM [rising, partial curve] under setting [1].

As for `N#Cc1ccc(NCC(=O)Nc2ccc(S(=O)(=O)N3CCCCC3)cc2)cc1`, the cell number change was 27%. Further, the half-maximal activity concentration (AC50) under setting [1] was 0.146 µM [rising, full curve, poor fit].

With `O=C(/C=C/c1cccc([N+](=O)[O-])c1)Nc1ccc(Cl)cn1`, the cell number change was -41%. Further, the half-maximal activity concentration (AC50) under setting [2] is 29.1 µM [falling, single point]. For the same molecule, the AC50 under setting [1] is 29.1 µM [falling, single point].

For `Cc1ccc(-c2csc(Nc3ccccn3)n2)cc1`, the AC50 under setting [1] is 29.1 µM [rising, single point].

On to `COc1ccc(S(=O)(=O)CCC(=O)N2CCN(c3cccc(Cl)c3)CC2)cc1`, for which the cell number change was 5.97%. Further, the concentration at half-maximal activity (AC50) under setting [1] is 0.13 µM [falling, full curve, poor fit].

As for `CCOc1ccc(OCCC(=O)N(CC(=O)Nc2ccccc2C(F)(F)F)Cc2ccco2)cc1`, under setting [2], the concentration at half-maximal activity (AC50) was 4.11 µM [rising, single point].

`O=C(CSc1ncnc2c1oc1ccccc12)Nc1cccc(C(F)(F)F)c1`: the half-maximal activity concentration (AC50) under setting [2] is 0.82 µM [falling, full curve, poor fit] and the AC50 under setting [1] was 0.00517 µM [falling, full curve, poor fit].

As for `Cc1ccc2nc(-c3ccc(NC(=O)c4ccco4)cc3)[nH]c2c1`, under setting [2], the half-maximal activity concentration (AC50) is 0.231 µM [rising, partial curve, poor fit].

As for `COCCNC(=O)c1ccc2c(=O)n(Cc3ccco3)c(SCC(=O)Nc3ccc(OC)cc3OC)nc2c1`, under setting [1], the half-maximal activity concentration (AC50) was 0.58 µM [rising, single point].

`Cc1cc(OCc2nc3ccccc3s2)ccc1N`: the cell number change is 26.5%. The AC50 under setting [2] is 1.64 µM [rising, full curve, poor fit].

Take `CCN(Cc1nc2ccccc2c(=O)[nH]1)C(=O)c1cc(C2CC2)nn1-c1ccccc1`: the cell number change was determined as 1.13%. The concentration at half-maximal activity (AC50) under setting [1] was 3.66 µM [falling, full curve].

In the case of `Cc1cc(C)cc(NC(=O)CCc2ccc(C)o2)c1`, the AC50 under setting [1] was 29.1 µM [rising, single point].

`CC(C)CC(=O)Nc1ccc(-c2cn3ccsc3n2)cc1`: the cell number change came to 4.61%. Under setting [1], the concentration at half-maximal activity (AC50) is 29.1 µM [rising, single point].

Regarding `COc1ccc(-c2c(-c3cc(OC)cc(OC)c3)n(C)c3ccc(-c4ccc(OC)cc4F)cc23)cc1`, the cell number change worked out at 20.6%. Under setting [1], the AC50 is 0.184 µM [rising, full curve, poor fit].

`CC(C)c1ccc(C(C(=O)NC2CCCC2)N(C(=O)CNC(=O)c2ccco2)c2cccnc2)cc1` (centres undefined): the cell number change was determined as 0.546%. Also, the concentration at half-maximal activity (AC50) under setting [1] was 1.64 µM [rising, full curve, poor fit].

Consider `Cn1ncc(Cl)c1C(=O)N1CCN(c2ncccn2)CC1`, for which the cell number change is -50.6%. Moreover, the AC50 under setting [2] was 2.06 µM [falling, partial curve, poor fit].

Consider `N#Cc1c2c(c(NCc3cccnc3)n3c1nc1ccccc13)CCC2`, for which the AC50 under setting [2] was 0.103 µM [rising, full curve, poor fit].

As to `COc1ccccc1C(=O)OCCN1CCOCC1`, the cell number change amounted to 0.932%. Besides, under setting [1], the AC50 is 0.651 µM [falling, full curve].

Consider `CCN(CC)CCCn1c(SCC(=O)Nc2cccc(F)c2)nnc1-c1ccoc1C`, for which the cell number change turned out to be 10.8%. In addition, the half-maximal activity concentration (AC50) under setting [1] was 0.58 µM [falling, single point].

As for `O=S(=O)(NCCc1ccccc1)c1cnc(Cl)c(Br)c1`, the cell number change is -17.7%. Besides, the AC50 under setting [1] is 6.51 µM [falling, single point].

As to `O=C(CN(c1ccccc1Cl)S(=O)(=O)c1ccccc1)NCc1ccccc1`, the AC50 under setting [1] is 0.58 µM [rising, single point].

As to `Cc1noc(C)c1CSCC(=O)Nc1nnc(CC(C)C)s1`, the cell number change stood at 33.5%. Besides, under setting [1], the concentration at half-maximal activity (AC50) is 1.03 µM [rising, partial curve].

Regarding `NC(=O)CC(NC(=O)c1ccccc1)c1ccc(NCCN2CCCCC2)c([N+](=O)[O-])c1` (centres undefined), the cell number change stood at 9.71%. Besides, under setting [1], the half-maximal activity concentration (AC50) is 0.58 µM [rising, single point].

Turning to `Cc1ccc(C2NC(=O)Cc3ccccc32)cc1` (centres undefined), the AC50 was 6.51 µM [falling, single point] under setting [2] and 6.51 µM [falling, single point] under setting [1].

On to `C#CCOc1c(Br)cc(/C=C2/C(=O)ON=C2C)cc1OC`, for which the half-maximal activity concentration (AC50) under setting [2] is 4.11 µM [rising, single point].

For `Cc1nc2ccccc2n1C(=O)c1cc(-c2ccc(Br)cc2)nc2ccccc12`, the cell number change stood at 5.41%. Also, under setting [1], the AC50 is 29.1 µM [rising, single point].

`CC(=O)OCC1=C[C@@H]2OC(=O)C3=CO[C@@H](O[C@@H]4O[C@H](CO)[C@@H](O)[C@H](O)[C@H]4O)[C@H]1[C@@H]32`: the cell number change is -5.63%. For the same molecule, under setting [2], the AC50 is 1.03 µM [falling, single point]. The concentration at half-maximal activity (AC50) under setting [1] was 0.58 µM [rising, partial curve].

For `CCCc1cc(NC(=O)COC(=O)c2nccnc2N)n(-c2ccccc2)n1`, the cell number change is -20%. Under setting [1], the AC50 is 0.116 µM [falling, full curve, poor fit].

Consider `COc1ccc(CNC(=O)CNC(=O)c2cccs2)c(OC)c1`, for which the cell number change was determined as 5.7%. Further, under setting [1], the AC50 was 0.58 µM [rising, partial curve, poor fit].

As to `C=CCOc1ccc(/C=N/NC(=O)CN(c2cc(Cl)ccc2OC)S(=O)(=O)c2ccc(C)c([N+](=O)[O-])c2)cc1`, the cell number change came out at 20.5%. Further, the concentration at half-maximal activity (AC50) under setting [1] was 4.11 µM [rising, partial curve, poor fit].

On to `Cc1nc2c(O)cccc2cc1CO`, for which the cell number change was -35.2%. Besides, under setting [2], the AC50 was 16.4 µM [falling, single point].

With `CN(C)c1nc(N(C)C)n(Cc2c(Cl)cccc2Cl)n1`, the cell number change is -2.71%. Moreover, the half-maximal activity concentration (AC50) under setting [2] is 4.11 µM [rising, partial curve].

In the case of `Cc1ccc(S(=O)(=O)N2c3ccccc3NC(=O)CC2C)cc1` (centres undefined), the cell number change is -32%. Moreover, the AC50 under setting [2] is 4.11 µM [falling, partial curve, poor fit]. Also, the concentration at half-maximal activity (AC50) under setting [1] was 6.51 µM [falling, single point].

In the case of `CC1=C(C(=O)OC2CCC(C)CC2)C(c2ccc(O)c([N+](=O)[O-])c2)NC(=O)N1` (centres undefined), the cell number change was -8.8%. The AC50 under setting [1] was 29.1 µM [falling, single point].

Turning to `COc1ccc(S(=O)(=O)Nc2nc3ccccc3nc2NCC2CCCO2)cc1` (centres undefined), the cell number change worked out at 17%. The concentration at half-maximal activity (AC50) under setting [1] is 16.4 µM [rising, partial curve, poor fit].

Regarding `Cn1c(SCC(=O)O)nnc1C1CCCCC1`, the cell number change is -17.3%. The concentration at half-maximal activity (AC50) under setting [1] was 23.1 µM [falling, partial curve].

In the case of `CCN1CCc2c(C#N)c(N3CCOCC3)nc(NCc3ccccc3)c2C1`, the cell number change came to 227%. Further, under setting [2], the AC50 is 29.1 µM [rising, single point].

`Cc1cc(C)c2nc(NC(=O)[C@@H](NC(=O)c3cccc(S(=O)(=O)N4CCOCC4)c3)C(C)C)sc2c1`: the cell number change was -41.9%. Also, the concentration at half-maximal activity (AC50) under setting [2] is 10.3 µM [falling, partial curve, poor fit]. The concentration at half-maximal activity (AC50) under setting [1] was 20.6 µM [falling, single point].
